Results: US20190367445A1, “4-AMINO SUBSTITUTED PHENYLAMIDINE DERIVATIVES AND THEIR USE TO PROTECT CROPS BY FIGHTING UNDESIRED PHYTOPATHOGENIC MICOORGANISMS” (PI INDUSTRIES LTD., priority 2016, published 2019)
Some entries share one result that the patent states for a list of compounds. For at least one compound, name, drawing or mass did not settle the structure. Some ranges recur; such a range may be that of the whole group of compounds.

What was measured:
Botrytis cinera = experiment: Greenhouse preventive test: Botrytis cinera test in tomato; format: in vivo, Botrytis cinera on tomato (bean/chilli plants); settings: 500 ppm; preventive spray, Botrytis cinera inoculated one day after treatment; disease severity rating
[1] = test system: Rhizoctonia solani (Rice sheath blight/Potato black scurf); experiment: In vitro test on Potato Dextrose Agar, radial growth: Rhizoctonia solani; format: cell-based; settings: 300 ppm, radial growth after seven days, 25° C., 60% relative humidity
[2] = test system: Alternaria solani (early blight of tomato/potato); experiment: In vitro test on Potato Dextrose Agar, radial growth: Alternaria solani; format: cell-based; settings: 300 ppm, radial growth after seven days, 25° C., 60% relative humidity
[3] = test system: Colletotrichum capsici (anthracnose); experiment: In vitro test on Potato Dextrose Agar, radial growth: Colletotrichum capsici; format: cell-based; settings: 300 ppm, radial growth after seven days, 25° C., 60% relative humidity
[4] = test system: Botrytis cinerea (Gray mold); experiment: In vitro test on Potato Dextrose Agar, radial growth: Botrytis cinerea; format: cell-based; settings: 300 ppm, radial growth after seven days, 22° C., 90% relative humidity
[5] = test system: Septoria lycopersici (Leaf spot of tomato); experiment: In vitro test on Potato Dextrose Agar, radial growth: Septoria lycopersici; format: cell-based; settings: 300 ppm, radial growth after seven days, 25° C., 70% relative humidity

CCN(C)C=Nc1cc(C)c(N(C)c2cc(F)c(F)c(F)c2)cc1Cl [Compound 10]
Efficacy (% control) compared to untreated (Botrytis cinera): 70-100%
control compared to untreated check [1]: 70 to 100%
control compared to untreated check [2]: 70 to 100%

CCN(C)C=Nc1cc(C)c(N(C)c2ccc(OC)c(C)c2)cc1Cl [Compound 21]
Efficacy (% control) compared to untreated (Botrytis cinera): 70-100%
control compared to untreated check [1]: 70 to 100%
control compared to untreated check [2]: 70 to 100%

CCN(C)C=Nc1cc(C)c(N(C)c2ccc(F)cc2)cc1Cl [Compound 85]
Efficacy (% control) compared to untreated (Botrytis cinera): 70-100%
control compared to untreated check [1]: 70 to 100%
control compared to untreated check [3]: 70 to 100%
control compared to untreated check [2]: 70 to 100%

CCN(C)C=Nc1cc(C)c(Nc2c(F)cccc2F)cc1C [Compound 90]
Efficacy (% control) compared to untreated (Botrytis cinera): 70-100%
control compared to untreated check [2]: 70 to 100%

CCN(C)C=Nc1cc(C)c(Nc2c(Cl)cc(Cl)cc2C(F)(F)F)cc1Cl [Compound 110]
control compared to untreated check [4]: 70 to 100%
control compared to untreated check [1]: 70 to 100%
control compared to untreated check [5]: 80-100%
control compared to untreated check [3]: 70 to 100%
control compared to untreated check [2]: 70 to 100%

CCN(C)C=Nc1cc(C)c(Nc2cccc(SC(F)(F)F)c2)cc1C [Compound 126]
control compared to untreated check [4]: 70 to 100%
control compared to untreated check [1]: 70 to 100%
control compared to untreated check [5]: 80-100%
control compared to untreated check [3]: 70 to 100%
control compared to untreated check [2]: 70 to 100%

CCN(C)C=Nc1cc(C)c(Nc2ccc(SC)cc2)cc1Cl [Compound 128]
Efficacy (% control) compared to untreated (Botrytis cinera): 70-100%
control compared to untreated check [1]: 70 to 100%
control compared to untreated check [2]: 70 to 100%

CCN(C)C=Nc1cc(C)c(Nc2cccc(S(F)(F)(F)(F)F)c2)cc1Cl [Compound 134]
Efficacy (% control) compared to untreated (Botrytis cinera): 70-100%

CCN(C)C=Nc1cc(C)c(N(C)c2cccc(S(F)(F)(F)(F)F)c2)cc1Cl [Compound 136]
Efficacy (% control) compared to untreated (Botrytis cinera): 70-100%

CCN(C)C=Nc1cc(C)c(Nc2cc(C(F)(F)F)cc(C(F)(F)F)c2)cc1C [Compound 137]
Efficacy (% control) compared to untreated (Botrytis cinera): 70-100%
control compared to untreated check [1]: 70 to 100%
control compared to untreated check [2]: 70 to 100%

CCN(C)C=Nc1cc(C)c(Nc2cc(C(F)(F)F)cc(C(F)(F)F)c2)cc1Cl [Compound 138]
Efficacy (% control) compared to untreated (Botrytis cinera): 70-100%

CCN(C)C=Nc1cc(C)c(N(C)c2cccc(OC(F)F)c2)cc1C [Compound 145]
control compared to untreated check [4]: 70 to 100%
control compared to untreated check [1]: 70 to 100%
control compared to untreated check [5]: 80-100%
control compared to untreated check [3]: 70 to 100%
control compared to untreated check [2]: 70 to 100%

CCN(C)C=Nc1cc(C)c(Nc2cc(C)ccc2C(F)(F)F)cc1C [Compound 155]
control compared to untreated check [4]: 70 to 100%
control compared to untreated check [1]: 70 to 100%
control compared to untreated check [5]: 80-100%
control compared to untreated check [3]: 70 to 100%
control compared to untreated check [2]: 70 to 100%

CCN(C)C=Nc1cc(C)c(Nc2ccc(Cl)cc2C(F)(F)F)cc1C [Compound 159]
control compared to untreated check [4]: 70 to 100%
control compared to untreated check [1]: 70 to 100%
control compared to untreated check [5]: 80-100%
control compared to untreated check [3]: 70 to 100%
control compared to untreated check [2]: 70 to 100%

CCN(C)C=Nc1cc(C)c(Nc2ccc(Cl)cc2C(F)(F)F)cc1Cl [Compound 160]
control compared to untreated check [4]: 70 to 100%
control compared to untreated check [1]: 70 to 100%
control compared to untreated check [5]: 80-100%
control compared to untreated check [3]: 70 to 100%
control compared to untreated check [2]: 70 to 100%

CCN(C)C=Nc1cc(C)c(N(C)c2ccccc2SC)cc1Cl [Compound 163]
Efficacy (% control) compared to untreated (Botrytis cinera): 70-100%
control compared to untreated check [1]: 70 to 100%
control compared to untreated check [2]: 70 to 100%

CCN(C)C=Nc1cc(C)c(N(C)c2cccc(OC(F)F)c2)cc1Cl [Compound 164]
Efficacy (% control) compared to untreated (Botrytis cinera): 70-100%
control compared to untreated check [1]: 70 to 100%
control compared to untreated check [2]: 70 to 100%

CCN(C)C=Nc1cc(C)c(Nc2ccc(C(F)(F)F)cc2Cl)cc1C [Compound 166]
control compared to untreated check [4]: 70 to 100%
control compared to untreated check [1]: 70 to 100%
control compared to untreated check [5]: 80-100%
control compared to untreated check [3]: 70 to 100%
control compared to untreated check [2]: 70 to 100%

CCN(C)C=Nc1cc(C)c(Nc2ccc(C(F)(F)F)cc2Cl)cc1Cl [Compound 167]
control compared to untreated check [4]: 70 to 100%
control compared to untreated check [1]: 70 to 100%
control compared to untreated check [5]: 80-100%
control compared to untreated check [3]: 70 to 100%
control compared to untreated check [2]: 70 to 100%

CCN(C)C=Nc1cc(C)c(N(C)c2ccc(C(F)(F)F)cc2Cl)cc1C [Compound 168]
control compared to untreated check [4]: 70 to 100%
control compared to untreated check [1]: 70 to 100%
control compared to untreated check [5]: 80-100%
control compared to untreated check [3]: 70 to 100%
control compared to untreated check [2]: 70 to 100%

CCN(C)C=Nc1cc(C)c(N(C)c2ccc(C(F)(F)F)cc2Cl)cc1Cl [Compound 169]
control compared to untreated check [4]: 70 to 100%
control compared to untreated check [1]: 70 to 100%
control compared to untreated check [5]: 80-100%
control compared to untreated check [3]: 70 to 100%
control compared to untreated check [2]: 70 to 100%

Cc1cc(N=CN2CCOCC2)c(Cl)cc1N(C)c1ccccc1F [Compound 173]
control compared to untreated check [4]: 70 to 100%
control compared to untreated check [1]: 70 to 100%
control compared to untreated check [5]: 80-100%
control compared to untreated check [3]: 70 to 100%
control compared to untreated check [2]: 70 to 100%

CCN(C)C=Nc1cc(C)c(N(C)c2ccc(SC(F)F)cc2)cc1C [Compound 186]
control compared to untreated check [4]: 70 to 100%
control compared to untreated check [1]: 70 to 100%
control compared to untreated check [5]: 80-100%
control compared to untreated check [3]: 70 to 100%
control compared to untreated check [2]: 70 to 100%

CCN(C)C=Nc1cc(C)c(N(C)c2ccc(F)c(OC(F)F)c2)cc1C [Compound 197]
control compared to untreated check [4]: 70 to 100%
control compared to untreated check [1]: 70 to 100%
control compared to untreated check [5]: 80-100%
control compared to untreated check [3]: 70 to 100%
control compared to untreated check [2]: 70 to 100%

CCN(C)C=Nc1cc(C)c(Nc2cc(C)ccc2C)cc1Cl [Compound 199]
control compared to untreated check [4]: 70 to 100%
control compared to untreated check [1]: 70 to 100%
control compared to untreated check [5]: 80-100%
control compared to untreated check [3]: 70 to 100%
control compared to untreated check [2]: 70 to 100%

CCN(C)C=Nc1cc(C)c(N(C)c2cccc(OC(F)(F)C(F)F)c2)cc1C [Compound 206]
control compared to untreated check [4]: 70 to 100%
control compared to untreated check [1]: 70 to 100%
control compared to untreated check [5]: 80-100%
control compared to untreated check [3]: 70 to 100%
control compared to untreated check [2]: 70 to 100%

CCN(C)C=Nc1cc(C)c(Nc2cc(C)ccc2F)cc1C [Compound 207]
control compared to untreated check [4]: 70 to 100%
control compared to untreated check [1]: 70 to 100%
control compared to untreated check [5]: 80-100%
control compared to untreated check [3]: 70 to 100%
control compared to untreated check [2]: 70 to 100%

CCN(C)C=Nc1cc(C)c(N(C)c2cc(C)ccc2F)cc1C [Compound 209]
control compared to untreated check [4]: 70 to 100%
control compared to untreated check [1]: 70 to 100%
control compared to untreated check [5]: 80-100%
control compared to untreated check [3]: 70 to 100%
control compared to untreated check [2]: 70 to 100%

CCN(C)C=Nc1cc(F)c(Nc2ccccc2)cc1C [Compound 211]
control compared to untreated check [4]: 70 to 100%
control compared to untreated check [1]: 70 to 100%
control compared to untreated check [5]: 80-100%
control compared to untreated check [3]: 70 to 100%
control compared to untreated check [2]: 70 to 100%

CCN(C)C=Nc1cc(F)c(Nc2ccccc2Cl)cc1C [Compound 212]
control compared to untreated check [4]: 70 to 100%
control compared to untreated check [1]: 70 to 100%
control compared to untreated check [5]: 80-100%
control compared to untreated check [3]: 70 to 100%
control compared to untreated check [2]: 70 to 100%

CCN(C)C=Nc1cc(F)c(Nc2ccc(C(C)(C)C)cc2)cc1C [Compound 213]
control compared to untreated check [4]: 70 to 100%
control compared to untreated check [1]: 70 to 100%
control compared to untreated check [5]: 80-100%
control compared to untreated check [3]: 70 to 100%
control compared to untreated check [2]: 70 to 100%

CCN(C)C=Nc1cc(C)c(N(C)c2ccc(F)c(OC)c2)cc1C [Compound 219]
control compared to untreated check [4]: 70 to 100%
control compared to untreated check [1]: 70 to 100%
control compared to untreated check [5]: 80-100%
control compared to untreated check [3]: 70 to 100%
control compared to untreated check [2]: 70 to 100%

CCN(C)C=Nc1cc(C)c(Nc2ccccc2SC(F)F)cc1C [Compound 220]
control compared to untreated check [4]: 70 to 100%
control compared to untreated check [1]: 70 to 100%
control compared to untreated check [5]: 80-100%
control compared to untreated check [3]: 70 to 100%
control compared to untreated check [2]: 70 to 100%

CCN(C)C=Nc1cc(C)c(N(C)c2ccccc2SC(F)F)cc1C [Compound 221]
control compared to untreated check [4]: 70 to 100%
control compared to untreated check [1]: 70 to 100%
control compared to untreated check [5]: 80-100%
control compared to untreated check [3]: 70 to 100%
control compared to untreated check [2]: 70 to 100%

CCN(C)C=Nc1cc(F)c(N(C)c2cccc(C)c2)cc1C [Compound 230]
control compared to untreated check [4]: 70 to 100%
control compared to untreated check [1]: 70 to 100%
control compared to untreated check [5]: 80-100%
control compared to untreated check [3]: 70 to 100%
control compared to untreated check [2]: 70 to 100%
